Source: article PMC9663514
These are yes or no findings as the source states them, for the method shown. Binding seen in cells or lysates may run through a third protein. Some results given as binding are weak or reduced against the parent protein; the word gives no strength.

By UniProt entry, the sequences of proteins in these tests, tags left out. Where a name states a change or a piece, a line headed by the entry shows the natural chain unless it says otherwise. Chains listed by the source or under a name are the forms on record and can include a tag or linker.
UniProt P29597: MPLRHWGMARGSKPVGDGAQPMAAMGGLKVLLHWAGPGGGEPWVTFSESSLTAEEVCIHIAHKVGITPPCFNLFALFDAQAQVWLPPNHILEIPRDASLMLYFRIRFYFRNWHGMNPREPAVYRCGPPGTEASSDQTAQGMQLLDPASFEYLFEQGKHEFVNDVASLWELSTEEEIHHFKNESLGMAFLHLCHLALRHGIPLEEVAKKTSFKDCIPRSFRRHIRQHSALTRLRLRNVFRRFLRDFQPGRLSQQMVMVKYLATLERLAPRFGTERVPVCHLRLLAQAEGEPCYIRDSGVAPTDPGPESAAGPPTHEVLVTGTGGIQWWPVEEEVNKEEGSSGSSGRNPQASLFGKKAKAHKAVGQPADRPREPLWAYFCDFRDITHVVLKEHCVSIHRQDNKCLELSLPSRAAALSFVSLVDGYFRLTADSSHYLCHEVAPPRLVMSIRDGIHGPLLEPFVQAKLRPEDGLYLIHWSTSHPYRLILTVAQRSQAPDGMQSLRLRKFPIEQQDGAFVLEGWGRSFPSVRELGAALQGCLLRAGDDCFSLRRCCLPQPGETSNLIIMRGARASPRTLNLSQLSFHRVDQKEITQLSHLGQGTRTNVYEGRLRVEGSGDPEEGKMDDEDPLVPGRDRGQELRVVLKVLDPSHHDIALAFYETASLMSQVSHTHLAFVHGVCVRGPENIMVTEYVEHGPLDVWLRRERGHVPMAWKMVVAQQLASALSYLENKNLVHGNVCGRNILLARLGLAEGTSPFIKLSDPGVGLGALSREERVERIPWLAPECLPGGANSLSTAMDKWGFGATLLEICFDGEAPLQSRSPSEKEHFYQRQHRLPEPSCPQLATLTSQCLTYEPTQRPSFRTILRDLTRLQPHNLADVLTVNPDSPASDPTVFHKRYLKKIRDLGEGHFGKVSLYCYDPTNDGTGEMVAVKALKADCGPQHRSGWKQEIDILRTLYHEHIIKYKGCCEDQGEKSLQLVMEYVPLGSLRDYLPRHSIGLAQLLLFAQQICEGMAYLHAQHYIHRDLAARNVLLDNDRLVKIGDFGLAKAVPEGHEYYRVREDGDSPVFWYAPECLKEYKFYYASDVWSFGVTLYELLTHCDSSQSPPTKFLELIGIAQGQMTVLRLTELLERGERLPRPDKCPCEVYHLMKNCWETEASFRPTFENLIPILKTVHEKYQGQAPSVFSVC
ErbB4 JM-a CYT-2-HA (Q15303-3, form named): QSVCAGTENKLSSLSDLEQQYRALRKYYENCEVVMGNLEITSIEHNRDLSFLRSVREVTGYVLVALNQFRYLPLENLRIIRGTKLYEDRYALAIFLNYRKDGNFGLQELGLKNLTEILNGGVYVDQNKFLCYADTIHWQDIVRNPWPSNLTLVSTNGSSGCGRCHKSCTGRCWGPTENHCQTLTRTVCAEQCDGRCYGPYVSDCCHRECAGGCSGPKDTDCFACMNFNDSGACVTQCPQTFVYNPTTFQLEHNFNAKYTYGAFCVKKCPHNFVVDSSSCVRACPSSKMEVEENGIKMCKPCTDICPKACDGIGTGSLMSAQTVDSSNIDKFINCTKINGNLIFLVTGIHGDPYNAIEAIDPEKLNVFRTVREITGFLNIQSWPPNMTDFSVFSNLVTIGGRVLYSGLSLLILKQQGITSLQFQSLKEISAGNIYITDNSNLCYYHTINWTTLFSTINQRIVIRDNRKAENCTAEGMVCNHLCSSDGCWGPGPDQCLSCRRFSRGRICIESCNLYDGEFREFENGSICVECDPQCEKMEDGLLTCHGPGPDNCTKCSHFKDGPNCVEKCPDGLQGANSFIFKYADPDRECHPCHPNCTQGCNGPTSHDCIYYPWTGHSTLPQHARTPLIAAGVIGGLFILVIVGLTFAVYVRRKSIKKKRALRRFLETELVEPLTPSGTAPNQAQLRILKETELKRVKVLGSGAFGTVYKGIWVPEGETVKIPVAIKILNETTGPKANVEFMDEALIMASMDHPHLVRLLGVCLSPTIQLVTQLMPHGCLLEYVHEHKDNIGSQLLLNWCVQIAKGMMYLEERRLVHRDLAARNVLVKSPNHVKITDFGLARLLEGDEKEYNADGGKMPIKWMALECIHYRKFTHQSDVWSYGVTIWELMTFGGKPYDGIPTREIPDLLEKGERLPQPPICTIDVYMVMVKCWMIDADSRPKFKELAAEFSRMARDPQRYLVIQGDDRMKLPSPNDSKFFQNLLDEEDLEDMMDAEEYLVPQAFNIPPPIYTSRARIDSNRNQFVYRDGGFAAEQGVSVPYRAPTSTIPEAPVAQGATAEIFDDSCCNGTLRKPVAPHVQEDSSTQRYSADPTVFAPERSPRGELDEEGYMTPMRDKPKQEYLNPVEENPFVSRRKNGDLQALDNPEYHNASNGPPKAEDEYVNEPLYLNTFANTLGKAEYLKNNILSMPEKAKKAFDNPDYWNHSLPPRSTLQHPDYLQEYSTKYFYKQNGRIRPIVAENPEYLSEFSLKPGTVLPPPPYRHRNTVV
ErbB4 JM-b CYT-2-HA (Q15303-4, form named): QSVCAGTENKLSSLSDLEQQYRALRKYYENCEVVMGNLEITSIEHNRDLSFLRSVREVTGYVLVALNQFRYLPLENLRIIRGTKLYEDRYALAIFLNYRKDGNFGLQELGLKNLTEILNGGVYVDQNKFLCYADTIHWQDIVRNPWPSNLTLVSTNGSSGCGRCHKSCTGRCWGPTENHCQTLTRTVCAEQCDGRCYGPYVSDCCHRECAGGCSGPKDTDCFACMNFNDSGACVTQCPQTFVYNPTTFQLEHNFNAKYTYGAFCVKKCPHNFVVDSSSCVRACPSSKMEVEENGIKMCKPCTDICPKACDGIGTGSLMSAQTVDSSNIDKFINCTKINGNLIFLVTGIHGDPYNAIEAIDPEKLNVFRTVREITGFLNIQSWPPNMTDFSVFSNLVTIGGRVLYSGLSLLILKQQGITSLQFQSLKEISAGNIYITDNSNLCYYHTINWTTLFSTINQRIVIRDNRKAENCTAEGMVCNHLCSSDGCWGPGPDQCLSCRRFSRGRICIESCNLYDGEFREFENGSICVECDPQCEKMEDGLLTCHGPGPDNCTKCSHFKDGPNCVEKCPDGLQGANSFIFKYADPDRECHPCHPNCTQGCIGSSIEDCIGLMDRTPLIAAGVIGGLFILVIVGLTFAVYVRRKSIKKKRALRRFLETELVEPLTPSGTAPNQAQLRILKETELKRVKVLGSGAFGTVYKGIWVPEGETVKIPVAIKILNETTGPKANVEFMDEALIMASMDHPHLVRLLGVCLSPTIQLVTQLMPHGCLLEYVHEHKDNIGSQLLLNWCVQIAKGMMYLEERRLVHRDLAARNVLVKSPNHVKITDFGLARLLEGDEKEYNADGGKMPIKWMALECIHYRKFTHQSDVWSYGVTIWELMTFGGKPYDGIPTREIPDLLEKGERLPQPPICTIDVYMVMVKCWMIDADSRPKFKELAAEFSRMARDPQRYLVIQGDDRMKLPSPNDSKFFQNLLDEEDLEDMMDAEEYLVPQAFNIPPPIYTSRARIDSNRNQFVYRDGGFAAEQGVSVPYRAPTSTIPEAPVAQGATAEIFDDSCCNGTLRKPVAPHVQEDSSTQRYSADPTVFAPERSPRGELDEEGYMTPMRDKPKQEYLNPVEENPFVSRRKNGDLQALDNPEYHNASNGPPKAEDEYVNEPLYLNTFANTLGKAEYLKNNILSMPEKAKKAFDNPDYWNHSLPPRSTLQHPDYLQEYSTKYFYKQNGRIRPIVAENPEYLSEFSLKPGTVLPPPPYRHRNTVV

Biological target: GFP-tagged TYK2 (UniProt P29597)
Assay: co-IP; MCF-7 cells expressing GFP-tagged TYK2, JAK1, JAK2 or JAK3 and HA-tagged ErbB4 JM-a or JM-b, after NRG-1 stimulation; cells cross-linked with 1-3 mM DSP or DTPB for 2 min before lysis; anti-GFP immunoprecipitation, Western blot

| Substance | binding |
| --- | --- |
| ErbB4 JM-a CYT-2-HA (from UniProt Q15303-3 26-1292) (receptor) | no binding |
| ErbB4 JM-b CYT-2-HA (from UniProt Q15303-4 26-1282) (receptor) | binds |
